Experimental data taken from US20240050420A1, “NANOMEDICINES FOR TREATMENT OF DISEASE” (Chapman University, priority 2022, published 2024).
At least one structure is not confirmed: it was looked up by name or label, or the drawing left a doubt.

Test system: Pkd2 mice
Assay: 9-week treatment of Pkd2 mice: body weight, survival, cysts, fibrosis, kidney fluorescence
Conditions: Kaplan-Meier

`CO[C@H]1C[C@@H]2CC[C@@H](C)[C@@](O)(O2)C(=O)C(=O)N2CCCC[C@H]2C(=O)O[C@H]([C@H](C)C[C@@H]2CC[C@@H](O)[C@H](OC)C2)CC(=O)[C@H](C)/C=C(\C)[C@@H](O)[C@@H](OC)C(=O)[C@H](C)C[C@H](C)/C=C/C=C/C=C/1C` [rapamycin] was tested, and the Survival was “neither increases survival”.
